PubChem BioAssay AID1053208 | Peter MacCallum Cancer Centre – 2014
Assay: 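Genes whose silencing cuts survival of bone tumour cells only with doxorubicin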 (primary screen). Cell system: mouse osteosarcoma cells, early-passage culture from an engineered mouse model of fibroblastic bone tumour. Knock-down reagent: siRNA pool against mouse genes, 40 nM. Timing: about 120 h (48 h before drug, then 72 h with drug). Conditions: doxorubicin 100 nM for 72 h, roughly 30-40% inhibitory dose. Read-out: 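Luminescent ATP signal taken as viability with or without 100 nM doxorubicin for 72 h; mean of two wells set against non-targeting siRNA and turned into robust z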. Reading the numbers: viability z-score with doxorubicin: higher = more viable cells under doxorubicin; viability z-score without drug: higher = more viable cells with knock-down alone. Hit rule: 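Called active if knock-down leaves viability unchanged without drug (z within -2 to 2) but lowers it with doxorubicin (z at or under -2)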.
Shown is an unselected part of about 17,000 deposited reagents. Of all reagents, 788 (4.7%) were called active. 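Calls rest on z-score classes alone; an extra cut-off of viability at most 70% of control was not applied to them.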 Entries without a mark were called inactive. The numbers tell different reagents against one gene apart. Further read-outs or replicates are left out here.

target	reagent	combined z-score class	viability z-score with doxorubicin	viability z-score without drug
Tmem39b (GeneID 230770)	1	no change with or without drug	0.67	0.34
Washc3 (GeneID 67282)	1	low cell count with doxorubicin only (active)	-2.02	-0.84
Wdr64 (GeneID 75820)	1	low cell count with doxorubicin only (active)	-2.7	-1.52
Actl9 (GeneID 69481)	1	no change with or without drug	-0.67	-0.17
Apbb1ip (GeneID 54519)	1	no change with or without drug	-0.22	-0.17
Gata3 (GeneID 14462)	1	no change with or without drug	-1.12	-1.52
Tma16 (GeneID 66282)	1	no change with or without drug	1.69	0.17
Or9g10 (GeneID 258255)	1	no change with or without drug	-0.45	-0.51

A stretch from the list above, for reference:
target	reagent	combined z-score class	viability z-score with doxorubicin	viability z-score without drug
Tma16 (GeneID 66282)	1	no change with or without drug	1.69	0.17
Or9g10 (GeneID 258255)	1	no change with or without drug	-0.45	-0.51

The list goes on:
target	reagent	combined z-score class	viability z-score with doxorubicin	viability z-score without drug
Olfm2 (GeneID 244723)	1	no change with or without drug	0.45	0
Vstm4 (GeneID 320736)	1	no change with or without drug	-0.34	1.52
Bambi (GeneID 68010)	1	no change with or without drug	-1.12	-0.17
Ubfd1 (GeneID 28018)	1	no change with or without drug	-0.22	0.34
Mrpl40 (GeneID 18100)	1	low cell count without drug only	-1.35	-2.36
Gucy2f (GeneID 245650)	1	no change with or without drug	1.46	1.52
Rnf2 (GeneID 19821)	1	low cell count with and without drug	-2.7	-2.19
Tpk1 (GeneID 29807)	1	no change with or without drug	-1.57	0
Lgals7 (GeneID 16858)	1	no change with or without drug	1.57	1.52
Ppp1r35 (GeneID 69871)	1	no change with or without drug	0.67	0.84
Vamp5 (GeneID 53620)	1	no change with or without drug	0.67	-0.51
Vamp5 (GeneID 53620)	2	low cell count with doxorubicin only (active)	-2.02	-1.01
